{"sequences": {"note": "By UniProt entry, the sequences of proteins in these tests, tags left out.", "UniProt P41235, whole entry R85W": "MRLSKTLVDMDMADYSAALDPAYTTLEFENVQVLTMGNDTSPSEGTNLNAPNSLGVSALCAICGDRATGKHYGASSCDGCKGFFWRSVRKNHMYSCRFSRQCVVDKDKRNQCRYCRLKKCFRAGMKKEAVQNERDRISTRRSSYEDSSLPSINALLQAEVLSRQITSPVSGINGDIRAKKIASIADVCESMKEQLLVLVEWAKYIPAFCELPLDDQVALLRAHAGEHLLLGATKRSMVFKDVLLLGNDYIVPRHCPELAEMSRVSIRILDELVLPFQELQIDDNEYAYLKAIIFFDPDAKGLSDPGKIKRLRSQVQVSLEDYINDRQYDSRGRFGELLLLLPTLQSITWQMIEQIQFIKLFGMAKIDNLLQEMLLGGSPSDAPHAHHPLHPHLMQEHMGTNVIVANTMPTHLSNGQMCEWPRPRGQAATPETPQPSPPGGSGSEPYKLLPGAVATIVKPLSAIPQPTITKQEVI", "UniProt P41235, whole entry R85W/S87A": "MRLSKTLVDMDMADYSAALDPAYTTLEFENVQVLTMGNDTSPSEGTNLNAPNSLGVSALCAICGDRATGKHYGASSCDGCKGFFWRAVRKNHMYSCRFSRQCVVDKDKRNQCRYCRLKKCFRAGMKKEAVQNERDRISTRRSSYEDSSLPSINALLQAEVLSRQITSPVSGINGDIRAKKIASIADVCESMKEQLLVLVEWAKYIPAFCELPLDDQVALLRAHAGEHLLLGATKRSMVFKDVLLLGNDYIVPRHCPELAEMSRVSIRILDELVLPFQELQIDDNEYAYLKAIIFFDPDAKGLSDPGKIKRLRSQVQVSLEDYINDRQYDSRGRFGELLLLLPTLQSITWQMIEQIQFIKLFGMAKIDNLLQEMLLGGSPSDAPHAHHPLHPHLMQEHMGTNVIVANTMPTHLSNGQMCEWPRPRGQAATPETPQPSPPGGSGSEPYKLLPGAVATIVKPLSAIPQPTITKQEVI", "UniProt P41235, whole entry R89W": "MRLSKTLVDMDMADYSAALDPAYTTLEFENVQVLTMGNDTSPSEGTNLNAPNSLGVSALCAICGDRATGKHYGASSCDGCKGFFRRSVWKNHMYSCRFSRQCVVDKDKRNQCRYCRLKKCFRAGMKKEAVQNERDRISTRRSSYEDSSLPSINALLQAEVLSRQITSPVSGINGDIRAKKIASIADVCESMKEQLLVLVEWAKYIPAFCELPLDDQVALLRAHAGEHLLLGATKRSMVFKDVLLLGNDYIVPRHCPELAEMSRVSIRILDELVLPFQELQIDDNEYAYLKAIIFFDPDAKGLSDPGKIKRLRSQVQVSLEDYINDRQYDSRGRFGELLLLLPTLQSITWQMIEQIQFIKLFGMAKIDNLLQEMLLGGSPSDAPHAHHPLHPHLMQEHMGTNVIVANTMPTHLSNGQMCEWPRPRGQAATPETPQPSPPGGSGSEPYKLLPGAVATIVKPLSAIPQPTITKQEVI", "UniProt P41235, whole entry S87A": "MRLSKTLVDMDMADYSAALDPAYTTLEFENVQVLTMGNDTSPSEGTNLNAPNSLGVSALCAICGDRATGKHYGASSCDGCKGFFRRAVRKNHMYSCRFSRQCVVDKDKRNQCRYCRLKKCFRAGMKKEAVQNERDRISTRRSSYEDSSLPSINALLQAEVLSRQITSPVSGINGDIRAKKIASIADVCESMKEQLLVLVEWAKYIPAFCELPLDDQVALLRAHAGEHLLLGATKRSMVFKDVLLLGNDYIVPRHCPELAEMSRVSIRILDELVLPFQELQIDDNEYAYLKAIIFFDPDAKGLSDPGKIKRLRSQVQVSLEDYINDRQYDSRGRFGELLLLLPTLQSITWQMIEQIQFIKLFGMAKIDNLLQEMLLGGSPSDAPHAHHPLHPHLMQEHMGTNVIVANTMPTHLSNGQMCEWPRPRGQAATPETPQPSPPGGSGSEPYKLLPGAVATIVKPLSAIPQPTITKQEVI"}, "source": "paper PMC6941224", "test_in_all_cases": "EMSA", "details_in_all_cases": "20 uL: 1 uL IRDye 700 probe (50 nM), 2.5 ug COS-7 nuclear extract, 1x LI-COR Odyssey EMSA binding buffer, 2.5 mM DTT/0.25% Tween 20, 1 ug poly(dI-dC); 30 min …; protein in a lysate after overexpression; residues 1-474; protein details: Myc; label: IRDye 700 (IRD700 at 5' end of printed strand)", "key": {"HNF4A2 R85W (human)": {"target": "HNF4A2 R85W (human) (UniProt P41235)"}, "HNF4A2 R85W/S87A (human)": {"target": "HNF4A2 R85W/S87A (human) (UniProt P41235)"}, "HNF4A2 R89W (human)": {"target": "HNF4A2 R89W (human) (UniProt P41235)"}, "HNF4A2 S87A (human)": {"target": "HNF4A2 S87A (human) (UniProt P41235)"}, "HNF4A2 WT (human)": {"target": "HNF4A2 WT (human) (UniProt P41235)"}}, "note": "Construct, isoform or probe ends are uncertain for at least one entry. Results from cells or extracts need not show a direct contact. For some assays here: A weaker result is weaker than the reference pair of the same experiment."}
{"sequence": "AAAGGTCCAAAGGGCGCCT (double strand) [ApoAI site A probe]", "values": [{"measurement": "binding result", "setting": "HNF4A2 R85W (human)", "value": "binds more weakly"}, {"measurement": "binding result", "setting": "HNF4A2 R85W/S87A (human)", "value": "binds more weakly"}, {"measurement": "binding result", "setting": "HNF4A2 R89W (human)", "value": "binds more weakly"}, {"measurement": "binding result", "setting": "HNF4A2 S87A (human)", "value": "binds"}, {"measurement": "binding result", "setting": "HNF4A2 WT (human)", "value": "binds"}]}
